Several values for one entry are separate records, joined by “and”; a condition that tells them apart may be missing. Equal entries are not always repeated. Structures can show the parent of a compound that is named as a salt. The list shows a part of the results. Single values are uncertain here, since repeats match poorly.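 Human embryonic kidney cells were transiently transfected with a plasmid bearing a Renilla luciferase gene under the HSV-TK promoter. This first-round screen tests roughly ten thousand compounds for ones that increase reporter output.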

This assay deals with HEK 293FT. The assay is described as follows: log relative Renilla luciferase luminescence (reporter expression vs reference, reference not stated) (log (base not stated)); higher = higher recombinant reporter expression. Particulars: 10 µM; time after transfection 48 h.
On to `Cc1c(C2CCN(CCc3ccccc3)CC2)noc1-c1ccc(Cl)cc1` [L-741,742 hydrochloride], for which the log is 0.109.
For the compound `O=C1OC(OC(=O)c2cccnc2Nc2cccc(C(F)(F)F)c2)c2ccccc21` (centres undefined) [Talniflumate], the log is -0.137.
The figure for `C=CCc1cccc(/C=N/NC(=O)CN2CCN(Cc3ccccc3)CC2)c1O` is -0.551; for `O=c1c(-c2ccc(O)cc2)coc2cc(O)ccc12` [Daidzein] it is 0.108; for `O=C(OCCN1CCOCC1)C1(c2ccccc2)CCCCC1` [PRE-084 hydrochloride] it is -0.0131.
In the case of `Nc1nc(NCCc2ccc(O)cc2)nc2nc(-c3ccco3)nn12`, the log is 0.031.
Then `CCS(=O)(=O)N1CCC[C@@H]2CN3CCc4cc(OC)ccc4[C@@H]3C[C@@H]21`, with 0.0792; and `CCCC[C@@H](C=O)NC(=O)[C@H](CC(C)C)NC(=O)OCc1ccccc1` [Calpeptin], with 0.0747; and `Cn1nnc2c(C(N)=O)ncn2c1=O` [Temozolomide], with 0.007.
Then `Cc1cc(/C(=C/Nc2ccc(Cl)cc2)C(=O)Nc2ccc(Cl)cc2)on1`, with -0.162; and `CC(C)NCC(O)c1ccc2ccccc2c1` (centres undefined) [Pronethalol hydrochloride], with -0.0416; and `Cc1cccc(/C=C/c2ccccc2)n1`, with 0.0553.
Consider `Nc1ncnc2c1nc(Br)n2[C@@H]1O[C@@H]2COP(=O)(O)O[C@H]2[C@H]1O` [8-Bromo-cAMP, sodium salt], for which the log is -0.03.
For `CCc1cc(-c2n[nH]c(C)c2-c2ccc3c(c2)OCCO3)c(O)cc1O`, the log was found to be 0.0285.
Then `O=C(O)COCCN1CCN(C(c2ccccc2)c2ccc(Cl)cc2)CC1` (centres undefined) [Cetirizine dihydrochloride], with -0.146; and `Nc1nc(N)nc(-c2cc(Cl)ccc2Cl)n1` [Irsogladine maleate], with -0.121; and `O=C(NC(NC(=S)Nc1ccc(F)c([N+](=O)[O-])c1)C(Cl)(Cl)Cl)C(c1ccccc1)c1ccccc1` (centres undefined), with -0.0529.
Then `CC#CCOC(=O)c1c(C)nc2sc3c(c2c1N)CCC(O)C3` (centres undefined), with -0.000277; and `CC1(C)O[C@@H]2[C@@H](CO[C@@]3(COS(N)(=O)=O)OC(C)(C)O[C@@H]23)O1` [Topiramate], with -0.133.
`O=C1c2ccccc2C(Cc2ccncc2)(Cc2ccncc2)c2ccccc21` [XE 991 dihydrochloride]: the log was -0.0476.
`CCCn1c(=O)c2[nH]c(C3CCCC3)nc2n(CCC)c1=O`: the log is 0.16.
The figure for `Nc1cc(N2CCCCC2)nc(N)[n+]1[O-]` [Minoxidil] is 0.028.
Regarding `CC(C)[C@H]1c2ccc(F)cc2CC[C@@]1(CCN(C)CCCc1nc2ccccc2[nH]1)OC(=O)C1CC1` [NNC 55-0396 dihydrochloride], the log was -0.456.
Then `COc1ccc(CC(C)NCC(O)c2ccc(O)c(NC=O)c2)cc1` (centres undefined) [Formoterol hemifumarate], with 0.154; and `NS(=O)(=O)c1cc2c(cc1Cl)NC(C1CC3C=CC1C3)NS2(=O)=O` (centres undefined) [Cyclothiazide], with -0.0659; and `CCCCC#Cc1nc(NC)c2ncn([C@@H]3O[C@H](CO)[C@@H](O)[C@H]3O)c2n1`, with -0.0137.
For `CC(C)NC[C@H](O)COc1cccc2ccccc12` [(S)-(-)-Propranolol hydrochloride], the log was 0.0544.
Then `COc1ccc(-n2[nH]c3c4c(ncc3c2=O)CCCCC4)cc1`, with -0.0739.
Then `NC(=O)N/N=C/c1ccc(Oc2ccc(F)cc2)cc1`, with -0.0547.
Regarding `OC1CCC(Nc2nc(-c3ccccc3)nc3[nH]ccc23)CC1` (centres undefined), the log is -0.00242.
The figure for `N[C@@H](Cc1cc(CP(=O)(O)O)cc(-c2ccccc2Cl)c1)C(=O)O` is -0.044; for `CCn1c(=O)n(C2=C(CO)CN(CC3CCCCCCC3)CC2)c2ccccc21` it is -0.0858.
The figure for `COc1ccc(CN(CCN(C)C)c2ccccn2)cc1` [Mepyramine maleate] is 0.00106.
Turning to `N[C@@H](Cn1ccc(=O)n(Cc2ccccc2C(=O)O)c1=O)C(=O)O`, the log was -0.0671 and 0.0683.
`CN=c1nc(-c2ccccc2)n(-c2ccccc2)s1`: the log was 0.0738.
Then `CC(Oc1ccc(O)cc1)(P(=O)(O)O)P(=O)(O)O`, with 0.088; and `COc1ccc(C2CC(c3c(O)cc(C)oc3=O)=NCCS2)c(OC)c1` (centres undefined), with 0.0718; and `C[C@](N)(Cc1ccc(O)c(O)c1)C(=O)O` [L-(-)- α-Methyldopa], with -0.0265.
The figure for `CC[C@]1(O)C[C@@H]2CN(CCc3c([nH]c4ccccc34)[C@@](C(=O)OC)(c3cc4c(cc3OC)N(C)[C@H]3[C@@](O)(C(=O)OC)[C@H](OC(C)=O)[C@]5(CC)C=CCN6CC[C@]43[C@@H]65)C2)C1` [Vinblastine sulfate] is 0.00106.

For the origin of these results see the supplement of paper PMC7024190.
